This is an account of results in the supplement of paper PMC10849652.

Protein sequences, listed by entry. Tags and fused reporters are not part of them. Lines headed by an entry give the natural chain unless they say otherwise; changes in a name come on top.
UniProt Q06413, whole entry, looked up: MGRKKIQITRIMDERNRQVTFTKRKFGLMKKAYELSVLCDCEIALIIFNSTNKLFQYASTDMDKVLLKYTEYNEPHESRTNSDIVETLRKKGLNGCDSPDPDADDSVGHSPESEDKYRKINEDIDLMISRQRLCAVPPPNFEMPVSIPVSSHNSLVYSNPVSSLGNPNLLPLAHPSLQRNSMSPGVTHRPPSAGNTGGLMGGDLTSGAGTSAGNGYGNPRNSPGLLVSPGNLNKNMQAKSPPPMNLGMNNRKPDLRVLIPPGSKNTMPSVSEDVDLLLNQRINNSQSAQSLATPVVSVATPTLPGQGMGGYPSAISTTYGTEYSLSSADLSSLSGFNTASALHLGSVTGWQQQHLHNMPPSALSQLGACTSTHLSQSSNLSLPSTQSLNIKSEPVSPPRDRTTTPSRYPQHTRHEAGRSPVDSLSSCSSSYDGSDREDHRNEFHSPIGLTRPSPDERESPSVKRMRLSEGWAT
UniProt Q9H1U4: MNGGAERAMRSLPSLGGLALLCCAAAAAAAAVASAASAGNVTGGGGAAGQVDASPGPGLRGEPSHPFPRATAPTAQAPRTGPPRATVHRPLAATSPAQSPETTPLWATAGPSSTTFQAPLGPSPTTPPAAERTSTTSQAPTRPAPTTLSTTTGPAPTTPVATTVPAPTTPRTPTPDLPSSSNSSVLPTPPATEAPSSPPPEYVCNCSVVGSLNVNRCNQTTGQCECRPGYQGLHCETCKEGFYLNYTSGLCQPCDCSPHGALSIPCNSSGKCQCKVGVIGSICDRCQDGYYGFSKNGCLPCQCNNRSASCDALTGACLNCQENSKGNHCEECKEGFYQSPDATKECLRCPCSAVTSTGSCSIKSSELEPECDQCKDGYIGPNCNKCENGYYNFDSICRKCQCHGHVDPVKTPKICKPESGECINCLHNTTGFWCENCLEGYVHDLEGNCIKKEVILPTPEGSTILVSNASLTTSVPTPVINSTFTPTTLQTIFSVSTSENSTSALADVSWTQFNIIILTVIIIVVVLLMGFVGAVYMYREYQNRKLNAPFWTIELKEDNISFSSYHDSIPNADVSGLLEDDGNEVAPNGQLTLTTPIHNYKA
MCTS2P, A0A3B3IRV3, UniProt A0A3B3IRV3, whole entry, looked up: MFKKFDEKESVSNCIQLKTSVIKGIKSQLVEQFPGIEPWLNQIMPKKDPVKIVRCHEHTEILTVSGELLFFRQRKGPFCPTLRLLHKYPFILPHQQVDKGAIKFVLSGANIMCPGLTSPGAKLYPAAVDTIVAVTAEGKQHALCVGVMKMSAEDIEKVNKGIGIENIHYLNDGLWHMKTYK
UniProt Q7Z7M0: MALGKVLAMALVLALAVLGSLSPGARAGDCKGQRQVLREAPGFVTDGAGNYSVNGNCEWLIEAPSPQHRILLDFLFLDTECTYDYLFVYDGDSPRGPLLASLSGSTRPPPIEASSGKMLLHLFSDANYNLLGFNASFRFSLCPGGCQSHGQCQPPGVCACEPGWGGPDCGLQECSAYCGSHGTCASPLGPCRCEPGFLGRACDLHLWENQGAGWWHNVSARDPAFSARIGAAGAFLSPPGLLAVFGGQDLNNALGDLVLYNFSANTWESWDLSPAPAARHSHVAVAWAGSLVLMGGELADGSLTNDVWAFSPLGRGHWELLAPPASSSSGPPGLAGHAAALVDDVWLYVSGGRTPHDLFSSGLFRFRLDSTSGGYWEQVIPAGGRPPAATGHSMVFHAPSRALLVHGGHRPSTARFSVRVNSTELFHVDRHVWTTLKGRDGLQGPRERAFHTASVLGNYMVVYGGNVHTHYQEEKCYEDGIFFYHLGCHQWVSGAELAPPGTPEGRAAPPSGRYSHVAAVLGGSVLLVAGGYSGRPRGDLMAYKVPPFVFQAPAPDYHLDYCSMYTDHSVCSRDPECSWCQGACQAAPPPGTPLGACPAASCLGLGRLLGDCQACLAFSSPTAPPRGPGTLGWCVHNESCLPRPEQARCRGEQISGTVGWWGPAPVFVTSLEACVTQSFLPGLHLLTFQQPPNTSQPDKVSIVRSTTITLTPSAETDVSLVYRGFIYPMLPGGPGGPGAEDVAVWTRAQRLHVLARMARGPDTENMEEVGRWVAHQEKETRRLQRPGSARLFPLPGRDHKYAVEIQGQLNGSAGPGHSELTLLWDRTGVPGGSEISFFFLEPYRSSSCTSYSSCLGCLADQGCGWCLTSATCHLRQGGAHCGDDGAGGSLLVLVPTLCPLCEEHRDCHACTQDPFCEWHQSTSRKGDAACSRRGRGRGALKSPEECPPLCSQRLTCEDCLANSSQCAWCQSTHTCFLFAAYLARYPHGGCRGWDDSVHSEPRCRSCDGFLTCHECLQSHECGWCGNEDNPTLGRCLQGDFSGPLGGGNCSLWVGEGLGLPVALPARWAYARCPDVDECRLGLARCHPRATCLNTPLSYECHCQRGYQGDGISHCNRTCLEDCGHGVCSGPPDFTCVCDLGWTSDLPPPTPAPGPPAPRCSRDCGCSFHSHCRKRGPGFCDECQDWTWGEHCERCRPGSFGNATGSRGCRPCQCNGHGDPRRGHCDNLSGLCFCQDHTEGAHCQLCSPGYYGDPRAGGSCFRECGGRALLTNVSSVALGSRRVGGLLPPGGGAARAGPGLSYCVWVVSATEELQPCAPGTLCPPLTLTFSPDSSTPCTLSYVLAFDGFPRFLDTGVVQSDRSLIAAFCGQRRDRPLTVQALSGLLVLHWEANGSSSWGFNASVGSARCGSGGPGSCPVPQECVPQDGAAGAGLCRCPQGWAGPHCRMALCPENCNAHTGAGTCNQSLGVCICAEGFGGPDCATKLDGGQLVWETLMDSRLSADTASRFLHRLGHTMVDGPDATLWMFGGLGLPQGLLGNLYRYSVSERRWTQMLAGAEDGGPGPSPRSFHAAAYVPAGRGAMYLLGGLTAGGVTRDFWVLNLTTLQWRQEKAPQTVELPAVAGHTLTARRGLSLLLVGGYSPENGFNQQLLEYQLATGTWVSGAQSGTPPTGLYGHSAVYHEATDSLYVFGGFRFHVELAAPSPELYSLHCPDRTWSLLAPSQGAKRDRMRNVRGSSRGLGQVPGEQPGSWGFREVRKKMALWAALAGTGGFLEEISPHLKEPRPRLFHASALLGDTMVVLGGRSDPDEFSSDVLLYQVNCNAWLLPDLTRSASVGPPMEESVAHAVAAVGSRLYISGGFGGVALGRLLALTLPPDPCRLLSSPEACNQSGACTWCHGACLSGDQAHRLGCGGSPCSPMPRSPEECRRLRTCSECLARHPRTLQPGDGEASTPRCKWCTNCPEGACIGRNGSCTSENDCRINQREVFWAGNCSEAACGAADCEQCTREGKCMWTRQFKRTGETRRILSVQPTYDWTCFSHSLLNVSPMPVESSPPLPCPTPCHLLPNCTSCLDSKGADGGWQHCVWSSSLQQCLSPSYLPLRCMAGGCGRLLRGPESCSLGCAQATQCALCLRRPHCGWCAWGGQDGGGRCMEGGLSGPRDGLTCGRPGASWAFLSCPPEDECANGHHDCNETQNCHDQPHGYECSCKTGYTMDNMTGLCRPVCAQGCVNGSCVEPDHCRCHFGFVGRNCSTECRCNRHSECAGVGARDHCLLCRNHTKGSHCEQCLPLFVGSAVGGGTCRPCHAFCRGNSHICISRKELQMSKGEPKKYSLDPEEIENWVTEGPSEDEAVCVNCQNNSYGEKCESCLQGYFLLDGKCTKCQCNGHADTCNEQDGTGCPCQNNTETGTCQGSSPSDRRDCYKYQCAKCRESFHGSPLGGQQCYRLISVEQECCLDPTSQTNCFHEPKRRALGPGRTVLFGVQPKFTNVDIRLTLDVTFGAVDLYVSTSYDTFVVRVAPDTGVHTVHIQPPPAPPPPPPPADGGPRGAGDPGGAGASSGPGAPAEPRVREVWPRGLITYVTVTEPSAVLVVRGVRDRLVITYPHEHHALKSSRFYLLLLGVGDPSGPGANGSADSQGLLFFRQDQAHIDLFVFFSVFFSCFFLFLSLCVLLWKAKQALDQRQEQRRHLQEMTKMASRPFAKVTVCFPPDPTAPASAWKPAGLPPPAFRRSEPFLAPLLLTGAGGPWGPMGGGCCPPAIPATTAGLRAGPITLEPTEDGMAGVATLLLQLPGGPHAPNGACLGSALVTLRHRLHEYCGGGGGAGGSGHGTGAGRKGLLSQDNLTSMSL
UniProt Q9NWR8: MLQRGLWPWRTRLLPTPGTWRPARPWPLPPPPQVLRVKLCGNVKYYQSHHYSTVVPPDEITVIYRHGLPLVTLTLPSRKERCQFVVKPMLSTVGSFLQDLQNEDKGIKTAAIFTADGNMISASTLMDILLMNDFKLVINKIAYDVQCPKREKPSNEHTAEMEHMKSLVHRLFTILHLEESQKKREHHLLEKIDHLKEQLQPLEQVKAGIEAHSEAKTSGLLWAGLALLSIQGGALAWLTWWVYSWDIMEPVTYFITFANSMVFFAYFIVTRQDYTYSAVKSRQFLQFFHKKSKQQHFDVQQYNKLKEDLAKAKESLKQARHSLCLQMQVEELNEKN
UniProt Q6ZN04: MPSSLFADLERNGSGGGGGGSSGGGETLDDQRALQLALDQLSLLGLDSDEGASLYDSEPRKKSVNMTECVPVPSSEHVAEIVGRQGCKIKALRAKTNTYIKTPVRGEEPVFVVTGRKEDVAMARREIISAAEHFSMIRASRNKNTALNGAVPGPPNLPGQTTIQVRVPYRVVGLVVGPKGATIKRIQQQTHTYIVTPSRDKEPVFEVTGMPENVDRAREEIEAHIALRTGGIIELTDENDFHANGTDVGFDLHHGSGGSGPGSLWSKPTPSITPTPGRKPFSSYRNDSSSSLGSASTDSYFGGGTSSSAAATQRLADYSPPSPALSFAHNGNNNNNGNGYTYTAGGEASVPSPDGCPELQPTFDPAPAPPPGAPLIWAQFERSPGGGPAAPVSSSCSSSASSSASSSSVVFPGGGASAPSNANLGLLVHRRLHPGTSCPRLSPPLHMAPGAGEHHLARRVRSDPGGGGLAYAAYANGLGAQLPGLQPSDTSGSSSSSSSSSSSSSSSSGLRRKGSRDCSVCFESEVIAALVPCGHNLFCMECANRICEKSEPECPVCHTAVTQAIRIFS
UniProt Q5TF39: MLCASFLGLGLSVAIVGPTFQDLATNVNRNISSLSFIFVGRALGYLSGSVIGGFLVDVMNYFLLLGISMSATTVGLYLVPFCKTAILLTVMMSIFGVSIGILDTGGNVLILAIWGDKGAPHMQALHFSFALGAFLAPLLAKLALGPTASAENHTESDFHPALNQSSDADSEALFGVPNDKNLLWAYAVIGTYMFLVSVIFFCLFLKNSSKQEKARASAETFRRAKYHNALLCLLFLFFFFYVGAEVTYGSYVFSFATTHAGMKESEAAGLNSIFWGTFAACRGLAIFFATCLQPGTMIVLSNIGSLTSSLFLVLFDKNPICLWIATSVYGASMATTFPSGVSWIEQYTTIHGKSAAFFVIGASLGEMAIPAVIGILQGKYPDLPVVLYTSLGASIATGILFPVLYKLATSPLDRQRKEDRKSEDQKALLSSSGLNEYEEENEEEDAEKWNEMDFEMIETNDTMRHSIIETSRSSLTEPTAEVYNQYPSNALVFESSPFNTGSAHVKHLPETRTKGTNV
UniProt Q13503: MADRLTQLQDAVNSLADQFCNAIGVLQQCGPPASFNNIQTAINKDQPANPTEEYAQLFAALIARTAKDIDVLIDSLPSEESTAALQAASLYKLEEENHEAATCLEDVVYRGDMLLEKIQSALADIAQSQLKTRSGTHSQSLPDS
UniProt Q5U5Q3: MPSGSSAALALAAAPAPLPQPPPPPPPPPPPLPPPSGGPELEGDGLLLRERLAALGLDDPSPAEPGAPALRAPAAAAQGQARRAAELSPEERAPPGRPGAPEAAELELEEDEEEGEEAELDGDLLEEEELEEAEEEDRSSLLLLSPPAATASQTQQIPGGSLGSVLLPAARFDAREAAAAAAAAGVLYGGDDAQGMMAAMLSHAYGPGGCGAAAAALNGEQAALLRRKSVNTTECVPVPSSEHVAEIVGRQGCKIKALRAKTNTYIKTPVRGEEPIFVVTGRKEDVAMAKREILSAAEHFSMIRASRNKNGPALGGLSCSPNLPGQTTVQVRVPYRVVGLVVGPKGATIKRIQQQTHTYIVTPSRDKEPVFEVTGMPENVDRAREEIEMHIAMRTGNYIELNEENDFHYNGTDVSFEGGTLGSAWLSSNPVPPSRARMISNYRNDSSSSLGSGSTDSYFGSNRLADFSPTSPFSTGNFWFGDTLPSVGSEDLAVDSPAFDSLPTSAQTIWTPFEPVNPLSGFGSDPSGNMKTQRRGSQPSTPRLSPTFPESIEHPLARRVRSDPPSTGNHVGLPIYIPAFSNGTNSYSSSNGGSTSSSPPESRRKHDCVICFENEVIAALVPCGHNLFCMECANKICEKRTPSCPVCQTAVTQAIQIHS
UniProt Q8WXB1: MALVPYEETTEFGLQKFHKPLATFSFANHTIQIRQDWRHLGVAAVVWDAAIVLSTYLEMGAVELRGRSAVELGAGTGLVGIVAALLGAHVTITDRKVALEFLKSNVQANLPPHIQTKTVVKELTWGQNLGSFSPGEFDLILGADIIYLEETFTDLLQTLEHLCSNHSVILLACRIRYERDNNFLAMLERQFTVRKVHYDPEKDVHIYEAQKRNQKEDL

The other results are listed elsewhere or left out.

Compound in one assay: NCC(=O)Nc1ccc(-n2nc(C(F)(F)F)cc2-c2ccc3c(ccc4ccccc43)c2)cc1
As to the kind of experiment: log2 fold change, soluble protein after heating vs DMSO (PISA); higher = thermal stabilisation; K562 lysate, 10 uM; active = over 0.2 and 3.5 SD of the protein, either way, in both replicates (recomputed). The essentials: (§1)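 Dounce homogenisation of K562 pellets in PBS pH 7.4 with 1 mM MgCl2 produced a crude extract, used at 1 mg/mL protein. Exposure to 10 μM compound lasted 30 min, and aliquots were then heated for 3 min across 48°C-58°C, pooled and brought to 0.5% NP-40 at 4°C. The supernatant after 21,000xg for 90 min was quantified by TMTpro 16plex LC-MS/MS with channel sums equalised. Duplicate values are given as log-two fold change in thermal stability relative to solvent controls.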
As to MEF2C isoform 2 (UniProt Q06413), the log2 fold change was inactive: -0.105. On the same count and under the same terms, the figure for METTL15 (UniProt A6NJ78) is inactive: -0.045; for METTL6 (UniProt Q8TCB7) it is inactive: 0.054; for MDM4 (UniProt O15151) it is inactive: 0.329.

On to METTL25 (UniProt Q8N6Q8), for which the log2 fold change was inactive: -0.145.

On to MEGF9 (UniProt Q9H1U4), for which the log2 fold change is inactive: 0.109. Consider MED6 (UniProt O75586), for which the log2 fold change is inactive: -0.027. Consider MED19 (UniProt A0JLT2), for which the log2 fold change is inactive: 0.035. The same measure, in the same setting: the value for METTL23 (UniProt Q86XA0) was inactive: 0.177.

Compound in the next assay: O=C(CCCCCCC(=O)Nc1ccccc1)NO [vorinostat]
The assay is described as above. The essentials: as §1
On to MCTS2P, A0A3B3IRV3, for which the log2 fold change is inactive: -0.118.

Take MED28 (UniProt Q9H204): the log2 fold change was inactive: -0.219.

MFSD14B (UniProt Q5SR56): the log2 fold change was inactive: 0.114. Same read-out and setting: the figure for MED31 (UniProt Q9Y3C7) is inactive: -0.065; for METTL5 (UniProt H0YFV5) it is inactive: 0.121.

On to MFSD6 (UniProt Q6ZSS7), for which the log2 fold change was inactive: 0.285. For the target MED25 isoform 3 (UniProt Q71SY5), the log2 fold change is active: -0.294. For the target MEGF8 (UniProt Q7Z7M0), the log2 fold change was inactive: 0.05. Still for that read-out and setting: the value for MCUB (UniProt Q9NWR8) was inactive: 0.129; that for MEX3B (UniProt Q6ZN04) was inactive: -0.166. Turning to METTL9 (UniProt Q9H1A3), the log2 fold change is inactive: 0.003. On the same count and under the same terms, the value for MFSD11 (UniProt O43934) was inactive: 0.192. Same read-out and setting: the value for MEGF9 (UniProt Q9H1U4) was inactive: 0.075. The same measure, in the same setting: the figure for MDK (UniProt P21741) is inactive: 0.076. For the target MFSD4B (UniProt Q5TF39), the log2 fold change is inactive: 0.094. Regarding MED21 (UniProt Q13503), the log2 fold change is inactive: 0.14.

As for METTL7B (UniProt Q6UX53), the log2 fold change was inactive: 0.208.

On to MED29 (UniProt Q9NX70), for which the log2 fold change was inactive: 0.024.

In the case of MEX3C (UniProt Q5U5Q3), the log2 fold change is inactive: 0.089.

For the target METTL21A (UniProt Q8WXB1), the log2 fold change is inactive: 0.07.

Compound in the next assay: O=C(O)c1ccc2c(c1)nc(Nc1cccc(Cl)c1)c1ccncc12 [silmitasertib]
The assay is described as above. The procedure, abridged:
as §1
With MCTS2P, A0A3B3IRV3, the log2 fold change was inactive: -0.103. With MED28 (UniProt Q9H204), the log2 fold change is inactive: 0.003. Take MFSD14B (UniProt Q5SR56): the log2 fold change is inactive: 0.103.

MED31 (UniProt Q9Y3C7): the log2 fold change is inactive: -0.031. Regarding METTL5 (UniProt H0YFV5), the log2 fold change was inactive: -0.078. On the same count and under the same terms, the value for MFSD6 (UniProt Q6ZSS7) was inactive: -0.124.

As for MED25 isoform 3 (UniProt Q71SY5), the log2 fold change was inactive: 0.021. Same read-out and setting: the figure for MEGF8 (UniProt Q7Z7M0) is inactive: -0.062. Turning to MCUB (UniProt Q9NWR8), the log2 fold change was inactive: 0.057. Still for that read-out and setting: the figure for MEX3B (UniProt Q6ZN04) is inactive: 0.014; for METTL9 (UniProt Q9H1A3) it is inactive: 0.225; for MFSD11 (UniProt O43934) it is inactive: -0.013. With MEGF9 (UniProt Q9H1U4), the log2 fold change is inactive: -0.105. On to MDK (UniProt P21741), for which the log2 fold change is inactive: -0.038.

Regarding MFSD4B (UniProt Q5TF39), the log2 fold change was inactive: -0.04.

Consider MED21 (UniProt Q13503), for which the log2 fold change was inactive: -0.112. On the same count and under the same terms, the value for METTL7B (UniProt Q6UX53) was inactive: -0.163; that for MED29 (UniProt Q9NX70) was inactive: -0.012; that for MEX3C (UniProt Q5U5Q3) was inactive: 0.03. As to METTL21A (UniProt Q8WXB1), the log2 fold change is inactive: -0.016.
